From the supplement of paper PMC4604168 (melanoma cell lines)
The other results are listed elsewhere or left out. Many values rest on one well or one pass, so single values are uncertain.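 The apoptosis fraction was the count of cleaved-PARP antibody-stained nuclei relative to all DNA-stained nuclei, imaged in 1,536-well plates. Screening doses were set so most cells survived, and baseline and induced cleaved-PARP levels vary greatly across cell lines.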

What was measured:
Assay in all cases: cleaved PARP positive nuclei fraction relative to DMSO control; melanoma cells; higher = more apoptosis
Conditions in all cases: library dose: low library concentration; 72 h
501Mel = test system: 501Mel
A101D = test system: A101D
A2058 = test system: A2058
C32 = test system: C32
CBRC008 = test system: CBRC008 (line from a melanoma biopsy)
CBRC014 = test system: CBRC014 (line from a melanoma biopsy)
CBRC016 = test system: CBRC016 (line from a melanoma biopsy)
CBRC017 = test system: CBRC017 (line from a melanoma biopsy)

SMILES	cleaved PARP positive nuclei fraction (501Mel) [%]	cleaved PARP positive nuclei fraction (A101D) [%]	cleaved PARP positive nuclei fraction (A2058) [%]	cleaved PARP positive nuclei fraction (C32) [%]	cleaved PARP positive nuclei fraction (CBRC008) [%]	cleaved PARP positive nuclei fraction (CBRC014) [%]	cleaved PARP positive nuclei fraction (CBRC016) [%]	cleaved PARP positive nuclei fraction (CBRC017) [%]
CC[C@]1(O)C[C@H]2CN(CCc3c([nH]c4ccccc34)[C@@](C(=O)OC)(c3cc4c(cc3OC)N(C=O)[C@H]3[C@@](O)(C(=O)OC)[C@H](OC(C)=O)[C@]5(CC)C=CCN6CC[C@]43[C@@H]65)C2)C1 [vincristine] + c1cc(-c2cnn3cc(-c4ccc(OCCN5CCCCC5)cc4)cnc23)ccn1 [Dorsomorphin] (first compound 0.0001 µM, partner dose 0.4 µM)	88.3	80.4	1570	166	139	105	81.5	126
CC[C@]1(O)C[C@H]2CN(CCc3c([nH]c4ccccc34)[C@@](C(=O)OC)(c3cc4c(cc3OC)N(C=O)[C@H]3[C@@](O)(C(=O)OC)[C@H](OC(C)=O)[C@]5(CC)C=CCN6CC[C@]43[C@@H]65)C2)C1 [vincristine] + O=c1cc(-c2cccc3c2Sc2ccccc2S3)oc(N2CCOCC2)c1 [KU55933] (first compound 0.0001 µM, partner dose 1 µM)	101	14.7	802	875	114	115	176	145
Cc1cn(-c2cc(NC(=O)c3ccc(C)c(Nc4nccc(-c5cccnc5)n4)c3)cc(C(F)(F)F)c2)cn1 [nilotinib] + O=C(O)C(=O)Nc1sc2c(c1C(=O)O)CCNC2 [TCS401] (first compound 0.2 µM, partner dose 1.66667 µM)	54.2	25.8	24.9	86.9	43.2	146	83.3	79.9
O=C(/C=C/c1cccnc1)NCCCCC1CCN(C(=O)c2ccccc2)CC1 + COc1ccc2c(c1)CCC1C2CCC2(C)C(NCCCCCCN3C(=O)C=CC3=O)CCC12 [U73122] (first compound 0.01 µM, partner dose 0.4 µM)	149	10.9	76.4	99.5	2670	149	659	360
Cc1cc(Nc2cc(N3CCN(C)CC3)nc(Sc3ccc(NC(=O)C4CC4)cc3)n2)n[nH]1 [Tozasertib] + COC(=O)c1sccc1S(=O)(=O)Nc1ccc(Nc2ccccc2)cc1OC [GSK0660] (first compound 0.006 µM, partner dose 1 µM)	70.7	29.5	54.7	116	50.2	96.4	72.8	99.1
Cc1cc(Nc2cc(N3CCN(C)CC3)nc(Sc3ccc(NC(=O)C4CC4)cc3)n2)n[nH]1 [Tozasertib] + Oc1nc(-c2ccc(C(F)(F)F)cc2)nc2c1CSCC2 [XAV939] (first compound 0.006 µM, partner dose 2 µM)	129	31.9	96.4	102	301	89.5	63.1	86.1
O=C(/C=C/c1cccnc1)NCCCCC1CCN(C(=O)c2ccccc2)CC1 + COc1ccc(COc2ccc(Cc3cnc(N)nc3N)cc2OC)cc1 [GW2580] (first compound 0.01 µM, partner dose 1 µM)	142	22.3	16.3	32.5	3230	99.6	178	206
O=C(Nc1cc(C(F)(F)F)cc(C(F)(F)F)c1)c1cc(Cl)ccc1O + COc1cc(N2CCC(N3CCN(C)CC3)CC2)ccc1Nc1ncc(Cl)c(Nc2ccccc2S(=O)(=O)C(C)C)n1 [NVP-TAE684] (first compound 0.016 µM, partner dose 0.08 µM)	229	9.98	90.5	53.5	191	108	63.1	87.9
COc1cc([C@@H]2c3cc4c(cc3[C@@H](O[C@@H]3O[C@@H]5CO[C@@H](C)O[C@H]5[C@H](O)[C@H]3O)[C@H]3COC(=O)[C@H]23)OCO4)cc(OC)c1O [etoposide] + COc1cc2ncnc(Nc3ccc(Oc4ccccc4)cc3)c2cc1OC [SrcI1] (first compound 0.02 µM, partner dose 2 µM)	92.2	45.5	155	173	243	82.7	63.5	120
O=C(/C=C/c1cccnc1)NCCCCC1CCN(C(=O)c2ccccc2)CC1 + CCCCCCCCCCCC1=C(O)C(=O)C=C(O)C1=O [Embelin] (first compound 0.01 µM, partner dose 1.2 µM)	63.5	18.2	288	152	209	106	24.5	144
O=C(/C=C/c1cccnc1)NCCCCC1CCN(C(=O)c2ccccc2)CC1 + N#Cc1c(O)c2c(-c3ccc(-c4ccccc4O)cc3)csc2[nH]c1=O [A769662] (first compound 0.01 µM, partner dose 2 µM)	64.2	17.2	38.4	92.6	4260	84.7	540	189
O=c1[nH]nc(Sc2ncc([N+](=O)[O-])s2)n1-c1ccc2c(c1)OCCO2 + CC(C)CCN1c2nc(Nc3cc(F)c(O)c(F)c3)ncc2N(C)C(=O)C1C [BID1870] (first compound 0.2 µM, partner dose 0.2 µM)	147	18.7	111	143	86.6	113	67.6	87
O=c1[nH]nc(Sc2ncc([N+](=O)[O-])s2)n1-c1ccc2c(c1)OCCO2 + CCCCCCCCCCCC1=C(O)C(=O)C=C(O)C1=O [Embelin] (first compound 0.2 µM, partner dose 1.2 µM)	61.3	11.7	43.1	54.6	34.1	92	38.4	120
O=c1[nH]nc(Sc2ncc([N+](=O)[O-])s2)n1-c1ccc2c(c1)OCCO2 + COC(=O)c1sccc1S(=O)(=O)Nc1ccc(Nc2ccccc2)cc1OC [GSK0660] (first compound 0.2 µM, partner dose 1 µM)	66	35.2	50.8	130	147	135	89.8	75.6
O=c1[nH]nc(Sc2ncc([N+](=O)[O-])s2)n1-c1ccc2c(c1)OCCO2 + O=C(O)C(=O)Nc1sc2c(c1C(=O)O)CCNC2 [TCS401] (first compound 0.2 µM, partner dose 1.66667 µM)	77.2	20.5	44.7	42.7	44.9	101	54.1	72.7
COc1cc([C@@H]2c3cc4c(cc3[C@@H](O[C@@H]3O[C@@H]5CO[C@@H](C)O[C@H]5[C@H](O)[C@H]3O)[C@H]3COC(=O)[C@H]23)OCO4)cc(OC)c1O [etoposide] + O=C1NC(=O)/C(=C/c2ccc(-c3ccc(F)cc3O)o2)S1 [AS252424] (first compound 0.02 µM, partner dose 1 µM)	73.2	21.6	234	41.5	74.2	77.1	53.3	97.6
Cc1cn(-c2cc(NC(=O)c3ccc(C)c(Nc4nccc(-c5cccnc5)n4)c3)cc(C(F)(F)F)c2)cn1 [nilotinib] + O=C1NC(=O)/C(=C/c2ccc(-c3ccc(F)cc3O)o2)S1 [AS252424] (first compound 0.2 µM, partner dose 1 µM)	106	20.3	129	127	355	80.7	123	121
COc1cc([C@@H]2c3cc4c(cc3[C@@H](O[C@@H]3O[C@@H]5CO[C@@H](C)O[C@H]5[C@H](O)[C@H]3O)[C@H]3COC(=O)[C@H]23)OCO4)cc(OC)c1O [etoposide] + Cn1cc(/C=C2\C(=O)Nc3cccnc32)c2ccccc21 [GW441756] (first compound 0.02 µM, partner dose 0.4 µM)	61.6	28.7	74.7	95	97.3	112	108	270
N#CC[C@H](C1CCCC1)n1cc(-c2ncnc3[nH]ccc23)cn1 [ruxolitinib] + CCc1ccc(CCOc2ccc(CC3SC(=O)NC3=O)cc2)nc1 [pioglitazone] (first compound 1 µM, partner dose 2 µM)	65.1	5.57	125	80.2	151	94.1	116	97.5
CCCCCCCCCCCCCCCCCCOP(=O)([O-])OC1CC[N+](C)(C)CC1 [Perifosine] + COc1ccc(COc2ccc(Cc3cnc(N)nc3N)cc2OC)cc1 [GW2580] (first compound 0.4 µM, partner dose 1 µM)	168	18.9	144	57.7	229	80.7	22.7	97
COc1cc([C@@H]2c3cc4c(cc3[C@@H](O[C@@H]3O[C@@H]5CO[C@@H](C)O[C@H]5[C@H](O)[C@H]3O)[C@H]3COC(=O)[C@H]23)OCO4)cc(OC)c1O [etoposide] + Oc1cc(-c2nc(-c3ccccc3)[nH]c2-c2ccncc2)ccc1Cl [L779450] (first compound 0.02 µM, partner dose 0.2 µM)	83.5	30.5	80.8	190	73.7	93.7	19.7	96.8
Cc1cc(Nc2cc(N3CCN(C)CC3)nc(Sc3ccc(NC(=O)C4CC4)cc3)n2)n[nH]1 [Tozasertib] + CCN(CC)CCCCNc1ncc2cc(-c3cc(OC)cc(OC)c3)c(NC(=O)NC(C)(C)C)nc2n1 [PD173074] (first compound 0.006 µM, partner dose 0.1 µM)	75.2	20.7	58.5	51	161	94.4	33.7	83.6
CC[C@]1(O)C[C@H]2CN(CCc3c([nH]c4ccccc34)[C@@](C(=O)OC)(c3cc4c(cc3OC)N(C=O)[C@H]3[C@@](O)(C(=O)OC)[C@H](OC(C)=O)[C@]5(CC)C=CCN6CC[C@]43[C@@H]65)C2)C1 [vincristine] + COc1ccc(-c2ccc3c(N4CCOCC4)nc(N4C[C@@H](C)O[C@@H](C)C4)nc3n2)cc1CO [KU0063794] (first compound 0.0001 µM, partner dose 0.02 µM)	74.1	25.3	433	86	174	73.3	53.9	86.4

Record cards, from the list above. Order of values: cleaved PARP positive nuclei fraction (501Mel) [%] | cleaved PARP positive nuclei fraction (A101D) [%] | cleaved PARP positive nuclei fraction (A2058) [%] | cleaved PARP positive nuclei fraction (C32) [%] | cleaved PARP positive nuclei fraction (CBRC008) [%] | cleaved PARP positive nuclei fraction (CBRC014) [%] | cleaved PARP positive nuclei fraction (CBRC016) [%] | cleaved PARP positive nuclei fraction (CBRC017) [%]
O=C(/C=C/c1cccnc1)NCCCCC1CCN(C(=O)c2ccccc2)CC1 + COc1ccc(COc2ccc(Cc3cnc(N)nc3N)cc2OC)cc1 [GW2580] (first compound 0.01 µM, partner dose 1 µM) as listed: 142 | 22.3 | 16.3 | 32.5 | 3230 | 99.6 | 178 | 206
CC[C@]1(O)C[C@H]2CN(CCc3c([nH]c4ccccc34)[C@@](C(=O)OC)(c3cc4c(cc3OC)N(C=O)[C@H]3[C@@](O)(C(=O)OC)[C@H](OC(C)=O)[C@]5(CC)C=CCN6CC[C@]43[C@@H]65)C2)C1 [vincristine] + O=c1cc(-c2cccc3c2Sc2ccccc2S3)oc(N2CCOCC2)c1 [KU55933] (first compound 0.0001 µM, partner dose 1 µM) as listed: 101 | 14.7 | 802 | 875 | 114 | 115 | 176 | 145
